According to PubChem BioAssay AID504467 (National Center for Advancing Translational Sciences (NCATS), 2011):
Hit rate of the full screen: of about 330,000 compounds, about 7,700 (2.3%) were called active. This list was built around the results that the source calls inconclusive (neither active nor inactive); the mix of calls is not that of the screen. Calls come from the whole dose curve; as a rule, active = well fitted inhibition curve with a large enough effect; inconclusive = small, poorly fitted or top-dose-only effect, or effect the other way; inactive = flat fitted curve, though single readings scatter. Where the call is inconclusive, the potency comes from a doubtful curve fit.

Test: qHTS screen for small molecules that inhibit ELG1-dependent DNA repair in human embryonic kidney (HEK293T) cells expressing luciferase-tagged ELG1; note: nearly all actives have a fitted effect of over 55% in size
Settings: HEK293T ELG1-luciferase reporter, luminescence, 16 h, DNA damage induced by 5-fluorouridine; activity change, negative = inhibition: at 46.1 µM (top of the series)
Method in brief: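 Reporter activity after DNA damage by 5-fluorouridine is monitored. Compound-treated cells incubate 16 hr at 37 °C, then ONE-Glo is added for 30 min before luminescence reading.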
% is set by controls: 0 for no effect and ±100 for the full control effect; potency is the fitted concentration of half-maximal effect.

Compound | Potency | activity change, negative = inhibition
O=C(CN1C(=O)S/C(=C\C=C\c2ccccc2)C1=O)Nc1ccc(O)cc1 | inconclusive: 20.6 µM [activator, single point] | –
Cc1c(NC(=O)C(C)n2cc([N+](=O)[O-])cn2)c(=O)n(-c2ccccc2)n1C (configuration not stated) | inactive | –
O=C(CSc1nnc(SCc2cccc3ccccc23)s1)Nc1ccc(C(=O)O)cc1 | inactive | –
CC(C)c1nc(-c2ccc([N+](=O)[O-])cc2)cs1 | inconclusive: 25.9 µM [activator, single point] | –
CC(C#N)(Nc1ccc(Cl)cc1)c1cccnc1 (configuration not stated) | inactive | –
O=C(NC(Cc1ccccc1)C(=O)O)/C(=C/c1ccc(Br)cc1)NC(=O)c1ccc(Br)o1 (configuration not stated) | inactive | –
NC(=O)CC(NC(=O)Cc1ccc(Br)cc1)c1ccc(N2CCC(N3CCCCC3)CC2)c([N+](=O)[O-])c1 (configuration not stated) | inconclusive: 0.116 µM [inhibitor, single point] | –
COc1cc(C(=O)Nc2nc(C)c(Cc3ccc4c(c3)OCO4)s2)cc(OC)c1OC | inconclusive: 5.17 µM [inhibitor, partial curve] | –
CCOc1ccc(N2C(=O)C(c3ccccc3)=C(c3nc4ccccc4s3)C2NC(C)=O)cc1 (configuration not stated) | inconclusive: 5.8 µM [inhibitor, partial curve] | –
Cn1c(SCC(=O)NCC2CCCO2)nnc1-c1ccco1 (configuration not stated) | inconclusive: 12.6 µM [activator, single point] | –
COc1cc2nc(Nc3ccc(C)c(Cl)c3)nc(N)c2cc1OC | inconclusive: 25.9 µM [activator, single point] | –
CCN1CCN(Cc2c(C(=O)N/N=C(\C)c3ccc(Cl)c(Cl)c3)nnn2-c2nonc2N)CC1 | inactive | –
Cc1ccccc1OCc1n(CC(=O)OC2CC(C)CCC2C(C)C)c2ccccc2[n+]1C (configuration not stated) | active: 11.6 µM | –
O=C(/C=C/c1ccc[nH]1)c1ccccc1 | inconclusive: 29.1 µM [activator, single point] | –
COc1ccc(-c2nnc(SCc3c(C)noc3C)n2N)cc1OC | inactive | –
Cc1cc(C(=O)CN2C(=O)NC3(CCCCC3)C2=O)c(C)n1-c1ccc2c(c1)OCO2 | inactive | –
NNC(=S)Nc1c(Br)cc(F)cc1Br | inactive | –
S=c1[nH]nc(COc2cccc(Cl)c2)n1Cc1ccccc1 | – | inconclusive: 20.1% [activator]
CC(C)c1cc(C(=O)Nc2cccc(C(F)(F)F)c2)no1 | inconclusive: 16.4 µM [activator, single point] | –
COc1ccc(C(C)=O)cc1CSc1nc2ccccc2c(=O)n1-c1ccccc1 | inconclusive: 11.6 µM [activator, partial curve, poor fit] | –
CCOC(=O)c1cnc2ccc(C)cc2c1OCc1cc(F)cc(F)c1 | inconclusive: 29.1 µM [inhibitor, single point] | –
O=C(CN1CCN(S(=O)(=O)c2ccccc2)CC1)NC(=O)NC1CCCCC1 | inactive | –
Cc1ccc(S[C@@H](CCN2CC[C@H](C)CCC2=O)c2ccccc2)cc1 | inactive | –
Cc1ccc(C)c(OCCC(=O)NCCc2ccc(F)cc2)c1 | inactive | –

Three entries picked at random from those above, as already listed:
Compound | Potency | activity change, negative = inhibition
COc1cc2nc(Nc3ccc(C)c(Cl)c3)nc(N)c2cc1OC | inconclusive: 25.9 µM [activator, single point] | –
COc1cc(C(=O)Nc2nc(C)c(Cc3ccc4c(c3)OCO4)s2)cc(OC)c1OC | inconclusive: 5.17 µM [inhibitor, partial curve] | –
Cn1c(SCC(=O)NCC2CCCO2)nnc1-c1ccco1 (configuration not stated) | inconclusive: 12.6 µM [activator, single point] | –

The list goes on:

Compound | Potency | activity change, negative = inhibition
CCc1ccc(/C(C)=N/NC(=O)c2ccccn2)cc1 | inconclusive: 18.3 µM [activator, single point] | –
Cc1nc2cc3c(cc2c(C)c1C(=O)OC(C)C)OCO3 | inactive | –
CC(C)(C)NC(=O)Nc1nnc(SCC(=O)NC2CCCCC2)s1 | inconclusive: 23.1 µM [activator, partial curve] | –
O=C(Nc1ncc(S(=O)(=O)c2ccc([N+](=O)[O-])cc2)s1)c1cccc2ccccc12 | inactive | –
NC(=S)N/N=C1\CCOc2ccc(Cl)cc21 | active: 20.6 µM | –
COc1ccc(CNC(=O)[C@H](C)NC(=O)C2CCN(C(=O)[C@H](CCSC)NC(=O)OC(C)(C)C)CC2)cc1 | inconclusive: 0.073 µM [activator, partial curve, poor fit] | –
COc1cccc(Nc2cc(C)c3ccccc3n2)c1 | inconclusive: 18.3 µM [activator, partial curve] | –
CC(C)(CNC(=O)CNC(=O)c1ccccc1F)N1CCOCC1 | inconclusive: 32.6 µM [activator, partial curve, poor fit] | –
CC(OC(=O)c1ccc(=O)n(Cc2ccccc2)n1)C(=O)Nc1cccc(Cl)c1 (configuration not stated) | inactive | –
O=C(NNC(=O)c1ccc(Cl)nc1)c1ccncc1 | inactive | –
Cc1nnc(NCc2ccco2)s1 | inactive | –
CCn1cc(C(=O)O)c(=O)c2cc(F)c(N3CCN(C(=S)NC(=O)c4cc(OC)cc(OC)c4)CC3)cc21 | inconclusive: 18.3 µM [inhibitor, partial curve, poor fit] | –
O=C(CCc1ccccc1)Nc1nccs1 | inconclusive: 3.55 µM [activator, full curve] | –
COc1ccc(C(=O)OCC(=O)c2c[nH]c3ccccc23)c(OC)c1 | inconclusive: 3.66 µM [activator, single point] | –
Cc1ccc(NC(=O)Cc2nc(COC(=O)c3c(F)cccc3Cl)cs2)cc1 | active: 18.3 µM | –
COc1cc(Cl)c(C)cc1NC(=O)CN(C)Cc1cccc(OC)c1OC | active: 2.59 µM | –
Cc1ccc(OC(=O)c2ccc(N3CCOCC3)c([N+](=O)[O-])c2)cc1 | inactive | –
CCCCNC(=O)c1cc2c(=O)n3cccc(C)c3nc2s1 | inconclusive: 14.6 µM [activator, single point] | –
CC(C)(O)c1cc(=O)sc2nc3ccccc3n12 | inconclusive: 4.11 µM [activator, full curve] | –
COCCCNC(=O)c1c(N)n(-c2ccc3c(c2)OCO3)c2nc3ccccc3nc12 | inactive | –
O=C(CSc1nccn1Cc1ccco1)Nc1ccccc1C(F)(F)F | inconclusive: 20.6 µM [activator, single point] | –
CC(NC(=O)CN1CCN(C(=O)c2cccs2)CC1)c1ccc(F)cc1F (configuration not stated) | inactive | –
CCC(=O)Nc1cccc(C2=NN(c3ccccc3)C(c3ccc(OC)cc3)C2)c1 (configuration not stated) | inconclusive: 18.3 µM [inhibitor, partial curve, poor fit] | –
C=CCN1C(=O)S/C(=C\c2ccc(N3CCOCC3)cc2C)C1=O | inconclusive: 2.59 µM [activator, partial curve] | –

Compound | Potency | activity change, negative = inhibition
O=C(Cc1csc(Nc2nc(=S)[nH]c3ccccc23)n1)N1CCN(c2cccc(Cl)c2)CC1 | inconclusive: 3.26 µM [inhibitor, full curve] | –
O=Cc1ccc(N2N=C(c3ccccc3)CC2c2ccccc2)cc1 (configuration not stated) | inactive | –
Cn1cc(CN2CCC(n3nccc3NC(=O)c3ccccc3Cl)CC2)cn1 | inactive | –
O=C1NC(Cc2ccccc2)c2nc3ccc(F)cc3c(=O)n2-c2cc(Cl)ccc21 (configuration not stated) | inconclusive: 18.3 µM [inhibitor, single point] | –
Cc1ccc(C(=O)CN(CCCC(N)=O)C(=O)c2ccncc2)cc1 | inactive | –
Cc1ccc(C(=O)Nc2ccc(Oc3cccc(C(F)(F)F)c3)nc2)cc1 | inconclusive: 7.3 µM [inhibitor, partial curve, poor fit] | –
CCc1nc(C)cc2c1sc1ccccc12 | inconclusive: 18.3 µM [activator, single point] | –
COc1ccc(CN2CCCC(C(=O)c3ccc(SC)cc3)C2)cc1Cn1cccn1 (configuration not stated) | inconclusive: 29.1 µM [inhibitor, single point] | –
CCOc1ccc(C(=O)N[C@H](C(=O)Nc2ccc(OC)c(S(=O)(=O)N3CCOCC3)c2)C(C)C)cc1 | inconclusive: 16.4 µM [inhibitor, partial curve] | –
CC(C)=CCSc1nnc(CCNC(=O)OC(C)(C)C)o1 | inactive | –
O=C(COC(=O)c1ccc(S(=O)(=O)N2CCCC2)cc1)NCCc1ccc(F)cc1 | inconclusive: 20.6 µM [activator, single point] | –
Cc1cc(C)cc(N(C(=O)CCC(=O)Nc2ccccn2)C(C(=O)NC(C)C)c2ccc(O)cc2)c1 (configuration not stated) | inactive | –
CC(C)C(c1nnnn1CCc1ccccc1)N1CCN(C(=O)c2ccco2)CC1 (configuration not stated) | inconclusive: 16.4 µM [activator, partial curve, poor fit] | –
COc1ccc(N(CC(=O)NCCSCc2ccccc2C)S(=O)(=O)c2ccccc2)cc1 | inconclusive: 18.3 µM [inhibitor, single point] | –
Cc1nn(-c2ccccc2)c(N)c1C1(O)C(=O)N(C)c2ccccc21 (configuration not stated) | inactive | –
O=C(O)c1cc(S(=O)(=O)Nc2cccc(Oc3ccccc3)c2)ccc1Br | inconclusive: 0.411 µM [inhibitor, partial curve, poor fit] | –
CCOC(=O)C1=C(C)NC(=S)NC1c1cc(C)sc1C (configuration not stated) | inactive | –
CCN1CCCC1CNC(=O)c1cc2cc(F)ccc2[nH]1 (configuration not stated) | inconclusive: 9.2 µM [activator, partial curve, poor fit] | –
Cc1noc(C)c1COC(=O)c1csc2c1CCCC2 | inactive | –
C=CCn1c(NCCO)nc2sc3c(c2c1=O)CCC3 | inactive | –
C#CCOCCOCCOCCNc1nc(N2CCN(C(=O)[C@H](CCCN=C(N)N)n3cc(C(N)[C@@H](C)CC)nn3)CC2)nc(N2CCN(C(=O)[C@H](CCCCN)n3cc([C@@H](N)[C@H](C)CC)nn3)CC2)n1 (some centres not stated) | inconclusive: 32.6 µM [activator, partial curve, poor fit] | –
CCCCc1ccc(NC(=O)COCC)cc1 | inconclusive: 14.6 µM [activator, partial curve] | –
COc1cc(/C=C2/C(=O)N=C(N)N2C)cc(OC)c1OC | inconclusive: 14.6 µM [activator, partial curve, poor fit] | –
COc1ccc(NC(=O)Nc2ccc3c(c2)CCC3)cc1 | inconclusive: 11.6 µM [activator, partial curve] | –
